Experimental data from publication PMC11129471.
No constants are given. Whether binding was seen depends on the method and setting. Binding seen in cells or lysates may run through a third protein. A yes stands for co-enrichment or nearness to the bait. Other partners may have been found.

Protein sequences, listed by entry. Tags and fused reporters are not part of them.
UniProt Q9UKB1: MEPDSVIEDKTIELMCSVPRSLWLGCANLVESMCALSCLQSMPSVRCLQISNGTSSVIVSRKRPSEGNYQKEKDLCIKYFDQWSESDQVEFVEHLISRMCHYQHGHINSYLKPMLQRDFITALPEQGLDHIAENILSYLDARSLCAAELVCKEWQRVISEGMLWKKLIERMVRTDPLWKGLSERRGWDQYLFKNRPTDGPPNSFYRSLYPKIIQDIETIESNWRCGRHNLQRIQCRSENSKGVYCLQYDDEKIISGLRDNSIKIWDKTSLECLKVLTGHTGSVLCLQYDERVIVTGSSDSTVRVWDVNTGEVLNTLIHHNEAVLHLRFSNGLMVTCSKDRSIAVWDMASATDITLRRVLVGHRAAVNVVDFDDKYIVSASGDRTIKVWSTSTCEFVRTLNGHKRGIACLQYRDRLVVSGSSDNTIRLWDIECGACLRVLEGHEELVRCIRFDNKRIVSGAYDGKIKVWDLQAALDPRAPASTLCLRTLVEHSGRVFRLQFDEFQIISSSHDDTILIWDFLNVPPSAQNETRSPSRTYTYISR

Target: FBXW11 (UniProt Q9UKB1)
Experiment: affinity purification with mass spectrometry; LC-MS/MS of proteins found with FBXW11; how FBXW11 was isolated and from which cells is not told

- binding: binds
B1: TAK1 (protein, UniProt O43318 1-606)
chain: MSTASAASSSSSSSAGEMIEAPSQVLNFEEIDYKEIEVEEVVGRGAFGVVCKAKWRAKDVAIKQIESESERKAFIVELRQLSRVNHPNIVKLYGACLNPVCLVMEYAEGGSLYNVLHGAEPLPYYTAAHAMSWCLQCSQGVAYLHSMQPKALIHRDLKPPNLLLVAGGTVLKICDFGTACDIQTHMTNNKGSAAWMAPEVFEGSNYSEKCDVFSWGIILWEVITRRKPFDEIGGPAFRIMWAVHNGTRPPLIKNLPKPIESLMTRCWSKDPSQRPSMEEIVKIMTHLMRYFPGADEPLQYPCQYSDEGQSNSATSTGSFMDIASTNTSNKSDTNMEQVPATNDTIKRLESKLLKNQAKQQSESGRLSLGASRGSSVESLPPTSEGKRMSADMSEIEARIAATTAYSKPKRGHRKTASFGNILDVPEIVISGNGQPRRRSIQDLTVTGTEPGQVSSRSSSPSVRMITTSGPTSEKPTRSHPWTPDDSTDTNGSDNSIPMAYLTLDHQLQPLAPCPNSKESMAVFEQHCKMAQEYMKVQTEIALLLQRKQELVAELDQDEKDQQNTSRLVQEHKKLLDENKSLSTYYQQCKKQLEVIRSQQQKRQGTS
